One experiment deals with TET2-His (UniProt Q6N021). Description: co-IP; lysate of HEK293T with ectopically expressed TET2 and STAT3 or their domains and deletion mutants, immunoprecipitated with anti-His, anti-Flag or anti-HA antibody at 4 °C overnight, protein A/G agarose, western blot.
For experiment [1], the target named is Ten-eleven translocation protein 2 (TET2), endogenous in HUVECs (human (endogenous in HUVECs)) (UniProt Q6N021). Description: co-IP; lysates of HUVECs (500 µg) immunoprecipitated with anti-TET2 or anti-STAT3 antibodies at 4 °C overnight, protein A/G agarose, western blot; endogenous proteins.

Protein sequences, listed by entry. Tags and fused reporters are not part of them.
UniProt P40763: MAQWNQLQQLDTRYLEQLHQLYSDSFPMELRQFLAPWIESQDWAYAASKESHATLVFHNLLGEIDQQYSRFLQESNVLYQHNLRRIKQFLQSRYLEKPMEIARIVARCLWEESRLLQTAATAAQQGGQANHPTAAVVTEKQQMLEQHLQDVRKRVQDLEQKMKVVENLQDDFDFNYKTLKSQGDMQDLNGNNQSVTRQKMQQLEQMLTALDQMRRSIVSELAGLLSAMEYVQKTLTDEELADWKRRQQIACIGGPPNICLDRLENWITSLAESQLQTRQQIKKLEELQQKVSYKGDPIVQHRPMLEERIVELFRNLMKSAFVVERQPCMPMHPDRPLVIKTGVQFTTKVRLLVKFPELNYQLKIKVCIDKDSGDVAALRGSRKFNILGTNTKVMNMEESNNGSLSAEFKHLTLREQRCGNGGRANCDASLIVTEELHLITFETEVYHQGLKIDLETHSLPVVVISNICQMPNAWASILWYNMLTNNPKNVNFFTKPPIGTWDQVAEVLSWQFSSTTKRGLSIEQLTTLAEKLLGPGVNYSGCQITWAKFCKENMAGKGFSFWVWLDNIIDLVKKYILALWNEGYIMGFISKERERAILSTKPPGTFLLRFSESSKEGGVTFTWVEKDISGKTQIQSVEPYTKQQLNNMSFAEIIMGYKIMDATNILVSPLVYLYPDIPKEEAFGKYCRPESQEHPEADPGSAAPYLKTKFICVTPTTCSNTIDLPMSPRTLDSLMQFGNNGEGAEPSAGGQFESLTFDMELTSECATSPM

No constants are given. Whether binding was seen depends on the method and setting. Binding seen in cells or lysates may run through a third protein. Some binding calls cover weakened binding; strength is not graded here.

On to STAT3-Flag (from UniProt P40763 1-770), for which, in the experiment with TET2-His, the binding result is recorded as “binds”. With “Signal transducer and activator of transcription 3 (STAT3), endogenous in HUVECs (from UniProt P40763 1-770)”, the binding entry in experiment [1] is given as “binds”.
